Drawing on publication PMC7521923, this text covers binding for one molecule.

Sequences of proteins named here, by UniProt entry; tags and fusion partners are left off. Residues count along the entry.
UniProt Q13467, residues 27-585: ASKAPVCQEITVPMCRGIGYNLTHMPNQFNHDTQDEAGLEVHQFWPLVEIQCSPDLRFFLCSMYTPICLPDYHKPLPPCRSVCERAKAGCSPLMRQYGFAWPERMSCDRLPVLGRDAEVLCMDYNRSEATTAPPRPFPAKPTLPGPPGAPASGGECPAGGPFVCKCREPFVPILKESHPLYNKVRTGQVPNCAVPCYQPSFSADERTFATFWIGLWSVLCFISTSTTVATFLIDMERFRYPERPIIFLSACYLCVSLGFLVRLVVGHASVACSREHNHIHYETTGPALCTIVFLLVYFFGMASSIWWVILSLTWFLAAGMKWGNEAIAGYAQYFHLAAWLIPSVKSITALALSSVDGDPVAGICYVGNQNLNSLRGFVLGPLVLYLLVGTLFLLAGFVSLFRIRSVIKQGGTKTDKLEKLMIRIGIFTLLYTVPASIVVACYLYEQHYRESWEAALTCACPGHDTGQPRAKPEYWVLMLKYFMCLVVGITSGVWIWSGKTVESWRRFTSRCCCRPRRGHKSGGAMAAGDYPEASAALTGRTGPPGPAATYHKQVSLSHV

Results are given in words; binding and its absence hold for the method and conditions named. In cells and extracts the contact can be indirect. Some binding calls cover weakened binding; strength is not graded here.

The assay concerns the target FZD5 (transfected) (human) (UniProt Q13467). In words: co-IP; both partners expressed in transfected HEK293T cells (FZD5-USP8 also in T79KO cells and with TMEM79 overexpressed; USP8-TMEM79 in FZD null cells); NP40 lysis buffer (50 mM Tris pH 7.5, 150 mM NaCl, 1 mM EDTA, 1% NP40, 10% glycerol, 10 mM NaF); antibody-conjugated agarose beads (anti-c-Myc, anti-HA, anti-Flag M2 or anti-V5) at 4°C overnight; five washes; immunoblot. In general terms: Immunoblotting shows a protein as a band on a membrane.

B1: USP8 (enzyme, UniProt P40818 1-1118)
chain: MPAVASVPKELYLSSSLKDLNKKTEVKPEKISTKSYVHSALKIFKTAEECRLDRDEERAYVLYMKYVTVYNLIKKRPDFKQQQDYFHSILGPGNIKKAVEEAERLSESLKLRYEEAEVRKKLEEKDRQEEAQRLQQKRQETGREDGGTLAKGSLENVLDSKDKTQKSNGEKNEKCETKEKGAITAKELYTMMTDKNISLIIMDARRMQDYQDSCILHSLSVPEEAISPGVTASWIEAHLPDDSKDTWKKRGNVEYVVLLDWFSSAKDLQIGTTLRSLKDALFKWESKTVLRNEPLVLEGGYENWLLCYPQYTTNAKVTPPPRRQNEEVSISLDFTYPSLEESIPSKPAAQTPPASIEVDENIELISGQNERMGPLNISTPVEPVAASKSDVSPIIQPVPSIKNVPQIDRTKKPAVKLPEEHRIKSESTNHEQQSPQSGKVIPDRSTKPVVFSPTLMLTDEEKARIHAETALLMEKNKQEKELRERQQEEQKEKLRKEEQEQKAKKKQEAEENEITEKQQKAKEEMEKKESEQAKKEDKETSAKRGKEITGVKRQSKSEHETSDAKKSVEDRGKRCPTPEIQKKSTGDVPHTSVTGDSGSGKPFKIKGQPESGILRTGTFREDTDDTERNKAQREPLTRARSEEMGRIVPGLPSGWAKFLDPITGTFRYYHSPTNTVHMYPPEMAPSSAPPSTPPTHKAKPQIPAERDREPSKLKRSYSSPDITQAIQEEEKRKPTVTPTVNRENKPTCYPKAEISRLSASQIRNLNPVFGGSGPALTGLRNLGNTCYMNSILQCLCNAPHLADYFNRNCYQDDINRSNLLGHKGEVAEEFGIIMKALWTGQYRYISPKDFKITIGKINDQFAGYSQQDSQELLLFLMDGLHEDLNKADNRKRYKEENNDHLDDFKAAEHAWQKHKQLNESIIVALFQGQFKSTVQCLTCHKKSRTFEAFMYLSLPLASTSKCTLQDCLRLFSKEEKLTDNNRFYCSHCRARRDSLKKIEIWKLPPVLLVHLKRFSYDGRWKQKLQTSVDFPLENLDLSQYVIGPKNNLKKYNLFSVSNHYGGLDGGHYTAYCKNAARQRWFKFDDHEVSDISVSSVKSSAAYILFYTSLGPRVTDVAT
In the case of B1, the binding entry was “binds”.
